This passage reports binding results from paper PMC6004055.

Protein sequences, listed by entry. Tags and fused reporters are not part of them.
UniProt P48193: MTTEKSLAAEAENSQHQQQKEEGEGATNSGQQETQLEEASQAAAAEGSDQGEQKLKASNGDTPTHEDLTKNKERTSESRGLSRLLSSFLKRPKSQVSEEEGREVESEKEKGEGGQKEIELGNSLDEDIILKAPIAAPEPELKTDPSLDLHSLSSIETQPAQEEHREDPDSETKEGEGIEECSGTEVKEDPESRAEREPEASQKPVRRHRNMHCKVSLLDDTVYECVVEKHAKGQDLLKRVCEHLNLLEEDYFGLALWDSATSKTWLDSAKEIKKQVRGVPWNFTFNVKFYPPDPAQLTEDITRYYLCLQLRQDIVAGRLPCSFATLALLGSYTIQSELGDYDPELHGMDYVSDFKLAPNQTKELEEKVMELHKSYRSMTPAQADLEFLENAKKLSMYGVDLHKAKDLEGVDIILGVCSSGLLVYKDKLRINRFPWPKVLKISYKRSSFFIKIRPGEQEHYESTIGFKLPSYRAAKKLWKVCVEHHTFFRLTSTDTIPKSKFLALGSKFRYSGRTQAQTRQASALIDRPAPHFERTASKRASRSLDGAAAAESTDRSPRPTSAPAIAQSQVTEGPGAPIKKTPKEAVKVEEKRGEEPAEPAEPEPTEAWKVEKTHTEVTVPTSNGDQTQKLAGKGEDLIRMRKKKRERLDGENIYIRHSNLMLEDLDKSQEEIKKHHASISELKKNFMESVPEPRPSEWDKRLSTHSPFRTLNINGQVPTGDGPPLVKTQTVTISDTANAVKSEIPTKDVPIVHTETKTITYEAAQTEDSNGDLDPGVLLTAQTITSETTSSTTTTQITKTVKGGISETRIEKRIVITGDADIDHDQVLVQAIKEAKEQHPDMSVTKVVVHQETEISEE

These are yes or no findings as the source states them, for the method shown. In cells and extracts the contact can be indirect. Some binding calls cover weakened binding; strength is not graded here.

In the assay the target is protein 4.1 (mouse (endogenous in red blood cells)) (UniProt P48193). Put plainly: co-IP; hemoglobin-depleted mouse RBC lysate incubated 1 h at 37°C with anti-spectrin or anti-protein 4.1 antibody, then 1 h at 37°C with protein A/G magnetic beads; 20 mM Tris pH 7.5, 150 mM NaCl, 5 mM MgCl2, 1 mM DTT, 1% Triton X-100; IGG as negative control; Western blot against SART3.

B1: squamous cell carcinoma antigen recognized by T-cells 3 (SART3) (protein, UniProt Q9JLI8 1-962)
chain: MATTAASSASEPEVEPQAGPEAEGEEDEAKPAGVQRKVLSGAVAAEAAEAKGPGWDLQREGASGSDGDEEDAMASSAESSAGEDEWEYDEEEEKNQLEIERLEEQLSINGYDYNCHVELIRLLRLEGELSRVRAARQKMSELFPLTEELWLEWLHDEISMAMDGLDREHVYELFERAVKDYICPNIWLEYGQYSVGGIGQKGGLEKVRSVFERALSSVGLHMTKGLAIWEAYREFESAIVEAARLEKVHSLFRRQLAIPLYEMEATFAEYEEWSEEPMPESVLQSYQKALGQLEKYKPYEEALLQAEAPRLAEYQAYIDFEMKIGDPARIQLIFERALVENCLVPDLWIRYSQYLDRQLKVKDLVLSVHSRAVRNCPWTVALWSRYLLAMERHGLDHQTISATFENALSAGFIQATDYVEIWQVYLDYLRRRVDFRQDSSKELEELRSMFTRALEYLQQEVEERFSESGDPSCLIMQSWARVEARLCNNMQKARELWDSIMTRGNAKYANMWLEYYNLERAHGDTQHCRKALHRAVQCTSDYPEHVCEVLLTMERTEGTLEDWDLAIQKTETRLARVNEQRMKAAEKEAALVQQEEEKAEQRKKVRAEKKALKKKKKTRGADKRREDEDEENEWGEEEEEQPSKRRRTENSLASGEASAMKEETELSGKCLTIDVGPPSKQKEKAASLKRDMPKVAHDSSKDSVTVFVSNLPYSIEEPEVKLRPLFEVCGEVVQIRPIFSNRGDFRGYCYVEFGEEKSAQQALELDRKIVEGRPMFVSPCVDKSKNPDFKVFRYSTTLEKHKLFISGLPFSCTKEELEDICKAHGTVKDLRLVTNRAGKPKGLAYVEYENESQASQAVMKMDGMTIRENVIKVAISNPPQRKVPEKPEVRTAPGAPMLPRQMYGARGKGRTQLSLLPRALQRQGAAPQAENGPAPGPAVAPSVATEAPKMSNADFAKLLLRK
As for B1, the binding result is on record as “binds”.
